Reference: PubChem BioAssay AID256 (DTP/NCI, 2004)
The list does not hold the whole screen: it is rich in T/C values a quarter to a half above the control, in often repeated tests (any T/C) and in doses without a T/C. Further doses and runs are listed elsewhere. T/C is the treated group as % of the vehicle group. Some entries give survivors of the animals treated and no T/C: the source files T/C as zero there, which appears to mark a toxic dose or a test without result, not a measured value. Counts of survivors are from the toxicity check (mostly the fifth day) where no day follows; animals may have died later. Schedules are NCI's codes, read here as Q, the interval in days (D) or hours (H), X, the number of doses. Some doses were run more than once; the values are given in rising order. For survival time, this PubChem deposit counts one and a half times the control or more as active, and values a quarter to a half above the control carry no call in these data; other NCI protocols may use other cut-offs. Brackets with × give the number of equal values in this list. Some T/C values carry the count of animals alive at the toxicity check (mostly the fifth day); without a count, all were alive then.

Test system: CD2F1 mice, L1210 leukemia ip, survival T/C
Assay: NCI In Vivo Anticancer Drug Screen. Data for tumor model L1210 Leukemia (intraperitoneal) in CD2F1 (CDF1) mice
Conditions: T/C endpoint: mean survival time, vehicle: saline, higher T/C = longer survival
Summary of the method: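 Activity against a transplanted murine tumor was judged by comparing the compound group with a vehicle group. The outcome in the treated animals was divided by that in the controls.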

[1] = dose: 200.0 mg/kg/injection, schedule: Q01DX009 (oral)

`C=CCNC(=O)NCC=C` was tested, and the T/C (dose: 3.13 mg/kg/injection, schedule: Q01DX009 (oral)) was 106, 108, 111 (2×), 114, 117 % of control, the T/C (dose: 6.25 mg/kg/injection, schedule: Q01DX009 (ip), evaluated on day 30) was 104, 108, 114 % of control and the T/C (dose: 6.25 mg/kg/injection, schedule: Q01DX009 (ip), evaluated on day 60) was 106 % of control. The T/C (dose: 6.25 mg/kg/injection, schedule: Q01DX009 (oral), evaluated on day 30) was 108, 113 [5 of 6 alive], 115 (2×), 120, 125 % of control, the T/C (dose: 6.25 mg/kg/injection, schedule: Q01DX009 (oral), evaluated on day 60) was 104 % of control and the T/C (dose: 12.5 mg/kg/injection, schedule: Q01DX009 (ip), evaluated on day 30) was 118 % of control (3×). The T/C (dose: 12.5 mg/kg/injection, schedule: Q01DX009 (ip), evaluated on day 60) was 101 % of control, the T/C (dose: 12.5 mg/kg/injection, schedule: Q01DX009 (oral), evaluated on day 30) was 125, 126, 127, 128, 132, 138 % of control and the T/C (dose: 12.5 mg/kg/injection, schedule: Q01DX009 (oral), evaluated on day 60) was 127 % of control. The T/C (dose: 25.0 mg/kg/injection, schedule: Q01DX006 (ip)) was 142 % of control, the T/C (dose: 25.0 mg/kg/injection, schedule: Q01DX009 (ip), evaluated on day 30) was 107, 118, 120 (2×), 134 % of control and the T/C (dose: 25.0 mg/kg/injection, schedule: Q01DX009 (ip), evaluated on day 60) was 101 % of control. The T/C (dose: 25.0 mg/kg/injection, schedule: Q01DX009 (oral), evaluated on day 30) was 144, 151, 155, 156, 159 % of control (2×), the T/C (dose: 25.0 mg/kg/injection, schedule: Q01DX009 (oral), evaluated on day 60) was 142 % of control and the T/C (dose: 50.0 mg/kg/injection, schedule: Q01DX006 (ip)) was 144 % of control. For the same compound, the T/C (dose: 50.0 mg/kg/injection, schedule: Q01DX009 (ip), evaluated on day 30) was 115, 127, 130, 134 % of control (2×), the T/C (dose: 50.0 mg/kg/injection, schedule: Q01DX009 (ip), evaluated on day 60) was 107 % of control and the T/C (dose: 50.0 mg/kg/injection, schedule: Q01DX009 (oral), evaluated on day 30) was 118, 146, 148, 177, 181 % of control (2×). For the same compound, the T/C (dose: 50.0 mg/kg/injection, schedule: Q01DX009 (oral), evaluated on day 60) was 136 % of control, the T/C (dose: 100.0 mg/kg/injection, schedule: Q01DX001 (oral)) was 127 % of control and the T/C (dose: 100.0 mg/kg/injection, schedule: Q01DX007 (ip)) was 144 % of control. The T/C (dose: 100.0 mg/kg/injection, schedule: Q01DX009 (ip), evaluated on day 30) was 122, 123, 134, 136 (2×), 138 % of control, the T/C (dose: 100.0 mg/kg/injection, schedule: Q01DX009 (ip), evaluated on day 60) was 119 % of control and the T/C (dose: 100.0 mg/kg/injection, schedule: Q01DX009 (oral), evaluated on day 30) was 118, 119, 121, 132, 160 % of control. For the same compound, the T/C (dose: 100.0 mg/kg/injection, schedule: Q01DX009 (oral), evaluated on day 60) was 98 % of control [4 of 6 alive], the survivor count (dose: 100.0 mg/kg/injection, schedule: Q01DX009 (oral)) was 2 of 6 and the T/C (dose: 200.0 mg/kg/injection, schedule: Q01DX001 (oral)) was 125 % of control. For the same compound, the T/C (dose: 200.0 mg/kg/injection, schedule: Q01DX005 (ip)) was 125 % of control, the T/C (dose: 200.0 mg/kg/injection, schedule: Q01DX007 (ip)) was 142 % of control and the T/C (dose: 200.0 mg/kg/injection, schedule: Q01DX009 (ip), evaluated on day 30) was 114, 119, 129 [5 of 6 alive], 138 (2×), 144 % of control. For the same compound, the T/C (dose: 200.0 mg/kg/injection, schedule: Q01DX009 (ip), evaluated on day 60) was 136 % of control, the T/C [1] was 88, 93, 96 [4 of 6 alive], 102, 116, 132 % of control and the survivor count [1] was 3 of 6. The T/C (dose: 200.0 mg/kg/injection, schedule: Q03DX003 (ip)) was 126 % of control, the T/C (dose: 400.0 mg/kg/injection, schedule: Q01DX001 (oral)) was 138 % of control and the T/C (dose: 400.0 mg/kg/injection, schedule: Q01DX005 (ip)) was 129 % of control. For the same compound, the survivor count (dose: 400.0 mg/kg/injection, schedule: Q01DX007 (ip)) was 3 of 6, the survivor count (dose: 400.0 mg/kg/injection, schedule: Q01DX009 (ip)) was 0 of 6 and 1 of 6 and the survivor count (dose: 400.0 mg/kg/injection, schedule: Q01DX009 (oral)) was 0 of 6. The survivor count (dose: 400.0 mg/kg/injection, schedule: Q03DX003 (ip)) was 3 of 6, the survivor count (dose: 400.0 mg/kg/injection, schedule: Q04DX003 (ip)) was 1 of 6 and the survivor count (dose: 800.0 mg/kg/injection, schedule: Q01DX001 (oral)) was 1 of 6. The survivor count (dose: 800.0 mg/kg/injection, schedule: Q01DX005 (ip)) was 0 of 6, the survivor count (dose: 800.0 mg/kg/injection, schedule: Q02DX005 (ip)) was 0 of 6 and the survivor count (dose: 800.0 mg/kg/injection, schedule: Q04DX003 (ip)) was 0 of 6.
